Here are results for one compound from the supplement of paper PMC12819154, “High-throughput peptide-centric local stability assay extends protein–ligand identification to membrane proteins, tissues and bacteria” (Nature Structural & Molecular Biology, 2025).

By UniProt entry, the sequences of proteins in these tests, tags left out. Where a name states a change or a piece, a line headed by the entry shows the natural chain unless it says otherwise.
UniProt P0A7D4: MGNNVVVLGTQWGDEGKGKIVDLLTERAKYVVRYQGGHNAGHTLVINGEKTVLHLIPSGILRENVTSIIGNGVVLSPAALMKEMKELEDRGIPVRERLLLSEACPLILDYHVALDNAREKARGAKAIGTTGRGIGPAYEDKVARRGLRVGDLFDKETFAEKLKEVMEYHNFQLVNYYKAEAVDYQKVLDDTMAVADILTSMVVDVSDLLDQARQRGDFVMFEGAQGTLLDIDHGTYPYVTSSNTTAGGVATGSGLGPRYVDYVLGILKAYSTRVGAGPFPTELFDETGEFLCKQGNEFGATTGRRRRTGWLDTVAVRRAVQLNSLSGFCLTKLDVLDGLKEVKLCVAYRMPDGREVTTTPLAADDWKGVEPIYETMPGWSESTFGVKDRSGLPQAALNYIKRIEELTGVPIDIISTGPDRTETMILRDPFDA
UniProt P0A800, whole entry: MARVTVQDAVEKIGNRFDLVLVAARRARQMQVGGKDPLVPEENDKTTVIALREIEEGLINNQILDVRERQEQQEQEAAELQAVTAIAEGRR

Structures are written as SMILES. This is one part of the list. Most values lie at the level of the controls, where differences are scatter.

Common to all, as to experiment: log2 fold change of tryptic peptide abundance, ligand vs vehicle (limited proteolysis) (log2 ratio); higher = more trypsin-susceptible (destabilized)
The target of one test is T1, UniProt P0A703.
T1 sequence (whole entry): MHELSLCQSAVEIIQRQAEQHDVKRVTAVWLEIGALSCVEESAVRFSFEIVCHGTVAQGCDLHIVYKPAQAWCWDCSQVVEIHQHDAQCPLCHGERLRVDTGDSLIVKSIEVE
The note with it: peptide sequence: LRVDTGDSLIVK; peptide start residue: 97; ligand concentration: 10 uM; sample: E. coli crude lysate.

The target of the next test is UniProt P0A7D4. The note with it: peptide sequence: GAKAIGTTGR; peptide start residue: 123; ligand concentration: 10 uM; sample: E. coli crude lysate.
The next test concerns the target T2, UniProt P0A7Y8.
T2 sequence (whole entry): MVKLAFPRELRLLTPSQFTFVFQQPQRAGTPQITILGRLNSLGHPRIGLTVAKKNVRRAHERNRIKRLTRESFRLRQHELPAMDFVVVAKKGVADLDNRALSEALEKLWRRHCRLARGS
The note with it: peptide sequence: LRQHELPAMDFVVVAKK; peptide start residue: 75; ligand concentration: 10 uM; sample: E. coli crude lysate.

For another test, the target named is UniProt P0A800. The note with it: peptide sequence: QMQVGGKDPLVPEENDK; peptide start residue: 29; ligand concentration: 10 uM; sample: E. coli crude lysate.
Another test has as its target T3, UniProt P0A8F8.
T3 sequence (whole entry): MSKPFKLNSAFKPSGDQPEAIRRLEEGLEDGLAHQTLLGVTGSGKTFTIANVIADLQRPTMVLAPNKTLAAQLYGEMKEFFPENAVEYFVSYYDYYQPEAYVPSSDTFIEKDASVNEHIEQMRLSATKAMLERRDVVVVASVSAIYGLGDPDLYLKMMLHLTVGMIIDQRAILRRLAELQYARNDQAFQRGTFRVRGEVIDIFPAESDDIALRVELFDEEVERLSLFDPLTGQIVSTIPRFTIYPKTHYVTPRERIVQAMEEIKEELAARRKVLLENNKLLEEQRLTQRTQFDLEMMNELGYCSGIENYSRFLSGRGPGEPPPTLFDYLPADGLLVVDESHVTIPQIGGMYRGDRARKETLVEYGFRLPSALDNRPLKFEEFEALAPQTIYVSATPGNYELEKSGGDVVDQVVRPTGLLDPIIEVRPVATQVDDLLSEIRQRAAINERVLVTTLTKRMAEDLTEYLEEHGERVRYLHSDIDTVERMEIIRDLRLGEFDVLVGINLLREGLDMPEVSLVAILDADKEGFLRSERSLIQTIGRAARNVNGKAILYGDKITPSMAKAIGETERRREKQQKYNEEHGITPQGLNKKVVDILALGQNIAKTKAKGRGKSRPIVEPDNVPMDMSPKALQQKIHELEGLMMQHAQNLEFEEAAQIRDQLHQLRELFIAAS
The note with it: peptide sequence: YLHSDIDTVER; peptide start residue: 475; ligand concentration: 10 uM; sample: E. coli crude lysate.

For a further test, the target named is T4, UniProt P0A8Y3.
T4 sequence (whole entry): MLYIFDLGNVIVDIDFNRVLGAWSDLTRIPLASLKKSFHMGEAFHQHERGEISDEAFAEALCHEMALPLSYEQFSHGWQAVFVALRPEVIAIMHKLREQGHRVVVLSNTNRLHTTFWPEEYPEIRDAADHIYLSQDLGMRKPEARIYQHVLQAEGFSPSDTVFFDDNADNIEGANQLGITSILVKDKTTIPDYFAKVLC
The note with it: peptide sequence: KSFHMGEAFHQHER; peptide start residue: 36; ligand concentration: 10 uM; sample: E. coli crude lysate.

The next test addresses T5, UniProt P0A908.
T5 sequence (whole entry): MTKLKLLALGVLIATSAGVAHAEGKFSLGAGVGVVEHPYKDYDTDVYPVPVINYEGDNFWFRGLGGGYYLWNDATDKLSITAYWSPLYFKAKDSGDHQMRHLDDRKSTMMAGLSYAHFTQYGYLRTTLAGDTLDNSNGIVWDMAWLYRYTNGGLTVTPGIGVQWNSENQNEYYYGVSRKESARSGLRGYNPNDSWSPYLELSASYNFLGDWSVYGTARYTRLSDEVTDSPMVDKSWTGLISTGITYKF
The note with it: peptide sequence: AKDSGDHQMR; peptide start residue: 91; ligand concentration: 10 uM; sample: E. coli crude lysate.

Another test has as its target T6, UniProt P0A915.
T6 sequence (whole entry): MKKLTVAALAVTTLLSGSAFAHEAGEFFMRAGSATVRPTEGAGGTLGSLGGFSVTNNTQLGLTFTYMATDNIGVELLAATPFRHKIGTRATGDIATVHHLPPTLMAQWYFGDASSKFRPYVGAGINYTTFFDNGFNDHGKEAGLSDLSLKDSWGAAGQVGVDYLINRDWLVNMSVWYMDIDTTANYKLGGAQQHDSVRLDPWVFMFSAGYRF
The note with it: peptide sequence: LGGAQQHDSVR; peptide start residue: 188; ligand concentration: 10 uM; sample: E. coli crude lysate.

The next test has as its target T7, UniProt P0A959.
T7 sequence (whole entry): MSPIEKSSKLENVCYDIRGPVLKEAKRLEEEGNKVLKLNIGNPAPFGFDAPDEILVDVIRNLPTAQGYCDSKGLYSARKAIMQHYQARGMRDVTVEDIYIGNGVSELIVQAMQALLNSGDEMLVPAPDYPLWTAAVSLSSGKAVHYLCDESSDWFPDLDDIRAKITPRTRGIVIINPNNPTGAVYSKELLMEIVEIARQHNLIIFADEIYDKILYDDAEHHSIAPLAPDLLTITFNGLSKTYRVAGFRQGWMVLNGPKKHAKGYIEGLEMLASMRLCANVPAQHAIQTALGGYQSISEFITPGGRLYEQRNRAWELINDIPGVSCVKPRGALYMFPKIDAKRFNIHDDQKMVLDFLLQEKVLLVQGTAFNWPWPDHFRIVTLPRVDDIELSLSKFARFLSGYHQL
The note with it: peptide sequence: SSKLENVCYDIR; peptide start residue: 7; ligand concentration: 10 uM; sample: E. coli crude lysate.

For another test, the target named is T8, UniProt P0A9B6.
T8 sequence (whole entry): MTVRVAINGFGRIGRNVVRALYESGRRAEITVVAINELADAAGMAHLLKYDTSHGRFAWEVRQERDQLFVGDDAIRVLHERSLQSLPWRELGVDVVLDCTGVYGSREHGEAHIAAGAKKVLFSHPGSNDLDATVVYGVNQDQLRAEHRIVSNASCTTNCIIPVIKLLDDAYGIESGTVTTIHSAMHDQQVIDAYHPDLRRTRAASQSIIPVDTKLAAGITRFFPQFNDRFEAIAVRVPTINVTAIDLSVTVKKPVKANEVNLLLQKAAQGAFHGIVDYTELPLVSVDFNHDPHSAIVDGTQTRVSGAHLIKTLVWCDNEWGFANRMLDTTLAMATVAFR
The note with it: peptide sequence: VPTINVTAIDLSVTVKKPVK; peptide start residue: 237; ligand concentration: 10 uM; sample: E. coli crude lysate.

Another test addresses T9, UniProt P0A9C3.
T9 sequence (whole entry): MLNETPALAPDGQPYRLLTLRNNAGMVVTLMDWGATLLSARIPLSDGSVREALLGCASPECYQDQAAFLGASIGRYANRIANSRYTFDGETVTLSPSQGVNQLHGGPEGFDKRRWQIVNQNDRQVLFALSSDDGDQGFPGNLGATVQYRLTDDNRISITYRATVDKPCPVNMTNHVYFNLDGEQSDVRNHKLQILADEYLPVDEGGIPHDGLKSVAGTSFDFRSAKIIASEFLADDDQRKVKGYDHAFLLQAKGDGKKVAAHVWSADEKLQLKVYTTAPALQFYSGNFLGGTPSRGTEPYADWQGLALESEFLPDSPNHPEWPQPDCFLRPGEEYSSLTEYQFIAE
The note with it: peptide sequence: GYDHAFLLQAK; peptide start residue: 243; ligand concentration: 10 uM; sample: E. coli crude lysate.

In the next test the target is T10, UniProt P0A9G4.
T10 sequence (whole entry): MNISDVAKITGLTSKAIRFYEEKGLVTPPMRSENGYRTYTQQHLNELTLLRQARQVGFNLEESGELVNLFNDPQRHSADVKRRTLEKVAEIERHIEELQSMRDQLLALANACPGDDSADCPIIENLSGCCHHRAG
The note with it: peptide sequence: HIEELQSMR; peptide start residue: 94; ligand concentration: 10 uM; sample: E. coli crude lysate.

A further test addresses T11, UniProt P0A9I3.
T11 sequence (whole entry): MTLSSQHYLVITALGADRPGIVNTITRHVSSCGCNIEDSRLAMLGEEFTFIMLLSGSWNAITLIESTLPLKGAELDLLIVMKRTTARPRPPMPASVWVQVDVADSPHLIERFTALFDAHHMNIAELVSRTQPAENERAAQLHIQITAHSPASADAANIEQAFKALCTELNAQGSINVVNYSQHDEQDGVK
The note with it: peptide sequence: AAQLHIQITAHSPASADAANIEQAFK; peptide start residue: 138; ligand concentration: 10 uM; sample: E. coli crude lysate.

A further test addresses T12, UniProt P0A9J4.
T12 sequence (whole entry): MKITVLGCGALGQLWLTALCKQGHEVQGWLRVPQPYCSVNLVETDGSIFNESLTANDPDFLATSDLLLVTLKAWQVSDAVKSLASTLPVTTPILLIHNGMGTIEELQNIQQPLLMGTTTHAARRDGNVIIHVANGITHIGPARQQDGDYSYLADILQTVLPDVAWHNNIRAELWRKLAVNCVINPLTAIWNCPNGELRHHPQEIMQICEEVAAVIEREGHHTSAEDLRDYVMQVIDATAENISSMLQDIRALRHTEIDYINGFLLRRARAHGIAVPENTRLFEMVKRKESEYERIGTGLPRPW
The note with it: peptide sequence: ARAHGIAVPENTR; peptide start residue: 268; ligand concentration: 10 uM; sample: E. coli crude lysate.

In the next test the target is T13, UniProt P0A9K7.
T13 sequence (whole entry): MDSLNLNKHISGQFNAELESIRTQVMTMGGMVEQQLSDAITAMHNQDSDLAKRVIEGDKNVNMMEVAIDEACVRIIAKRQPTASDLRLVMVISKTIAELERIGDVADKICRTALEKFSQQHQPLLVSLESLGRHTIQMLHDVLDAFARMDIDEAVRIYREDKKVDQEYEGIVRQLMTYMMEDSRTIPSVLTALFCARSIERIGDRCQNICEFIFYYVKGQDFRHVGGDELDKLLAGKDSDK
The note with it: peptide sequence: RQPTASDLR; peptide start residue: 79; ligand concentration: 10 uM; sample: E. coli crude lysate.

In a further test the target is T14, UniProt P0A9L3.
T14 sequence (whole entry): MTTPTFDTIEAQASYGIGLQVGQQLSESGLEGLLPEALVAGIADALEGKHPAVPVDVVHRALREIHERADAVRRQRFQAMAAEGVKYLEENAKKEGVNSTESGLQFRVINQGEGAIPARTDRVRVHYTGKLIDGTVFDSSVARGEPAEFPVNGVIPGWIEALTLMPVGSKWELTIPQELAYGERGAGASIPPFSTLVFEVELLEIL
The note with it: peptide sequence: ALREIHERADAVR; peptide start residue: 61; ligand concentration: 10 uM; sample: E. coli crude lysate.

The target of a further test is T15, UniProt P0A9L8.
T15 sequence (whole entry): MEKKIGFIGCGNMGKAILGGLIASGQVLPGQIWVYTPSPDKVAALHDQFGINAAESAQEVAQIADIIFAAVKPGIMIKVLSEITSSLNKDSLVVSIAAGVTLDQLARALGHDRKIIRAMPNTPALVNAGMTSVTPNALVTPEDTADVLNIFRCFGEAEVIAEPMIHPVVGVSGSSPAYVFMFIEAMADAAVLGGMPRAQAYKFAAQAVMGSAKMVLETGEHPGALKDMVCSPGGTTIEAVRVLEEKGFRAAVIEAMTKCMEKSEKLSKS
The note with it: peptide sequence: VLSEITSSLNK; peptide start residue: 79; ligand concentration: 10 uM; sample: E. coli crude lysate.

The next test has as its target T16, UniProt P0A9M8.
T16 sequence (whole entry): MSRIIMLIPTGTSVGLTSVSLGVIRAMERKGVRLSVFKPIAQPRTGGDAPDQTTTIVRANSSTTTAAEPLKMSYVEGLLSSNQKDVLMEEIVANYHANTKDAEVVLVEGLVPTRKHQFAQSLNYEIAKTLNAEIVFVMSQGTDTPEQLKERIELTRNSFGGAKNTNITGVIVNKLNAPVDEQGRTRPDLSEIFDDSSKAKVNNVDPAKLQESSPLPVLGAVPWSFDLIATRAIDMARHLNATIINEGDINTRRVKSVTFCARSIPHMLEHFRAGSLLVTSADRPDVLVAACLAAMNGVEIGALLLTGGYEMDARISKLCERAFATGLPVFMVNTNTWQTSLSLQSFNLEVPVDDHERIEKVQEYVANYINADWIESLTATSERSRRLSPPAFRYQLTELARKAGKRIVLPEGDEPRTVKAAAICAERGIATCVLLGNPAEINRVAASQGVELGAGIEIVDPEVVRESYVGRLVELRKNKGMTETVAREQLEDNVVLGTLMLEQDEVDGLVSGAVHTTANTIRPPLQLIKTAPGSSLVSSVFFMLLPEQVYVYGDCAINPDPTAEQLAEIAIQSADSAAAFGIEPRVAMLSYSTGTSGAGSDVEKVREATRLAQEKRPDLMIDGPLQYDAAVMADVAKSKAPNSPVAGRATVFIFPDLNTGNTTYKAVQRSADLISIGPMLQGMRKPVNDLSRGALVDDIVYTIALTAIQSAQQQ
The note with it: peptide sequence: LSVFKPIAQPRTGGDAPDQTTTIVR; peptide start residue: 34; ligand concentration: 10 uM; sample: E. coli crude lysate.

`CC1(C)S[C@@H]2[C@H](NC(=O)[C@H](N)c3ccccc3)C(=O)N2[C@H]1C(=O)O` [ampicillin]: the log2 fold change was -0.118 in the test with UniProt P0A703; -0.725 with UniProt P0A7D4; 0.436 with UniProt P0A7Y8; 0.1 with UniProt P0A800; 0.26 with UniProt P0A8F8; 0.56 with UniProt P0A8Y3. Also, the log2 fold change with UniProt P0A908 came out at 0.102; in the test with UniProt P0A915, 0.211; with UniProt P0A959, 0.215; with UniProt P0A9B6 it was 0.391; with UniProt P0A9C3, 0.507; in the test with UniProt P0A9G4, 0.0775. In addition, the log2 fold change is -0.337 with UniProt P0A9I3; -0.319 in the test with UniProt P0A9J4; 0.179 with UniProt P0A9K7; 0.752 with UniProt P0A9L3; -0.417 with UniProt P0A9L8; -0.567 with UniProt P0A9M8.
